Values quoted from earlier work, collected in patent publication US20030134846A1, “Treatment of trypanosoma brucei with farnesyl protein transferase inhibitors” (Schering Corporation, priority 2001, published 2003).
For at least one compound, name, drawing or mass did not settle the structure.

Tested on: Trypanosome brucei rhodesiense
Conditions: in vivo

In the case of `NCCCC(N)(C(=O)O)C(F)F` (stereo not shown) [Eflornithine], the “effectiveness against Trypanosome brucei rhodesiense” value is listed as “poorly effective”.
